In this experiment the target is insulin-like growth factor 1 receptor (IGF-1R) on human peripheral blood mononuclear cells (human) (UniProt P08069). The experiment in a line: receptor occupancy by flow cytometry on PBMCs of healthy participants after IV or SC dosing (Phase I SAD study).

By UniProt entry, the sequences of proteins in these tests, tags left out. Residues count along the entry.
UniProt P08069, residues 31-1367: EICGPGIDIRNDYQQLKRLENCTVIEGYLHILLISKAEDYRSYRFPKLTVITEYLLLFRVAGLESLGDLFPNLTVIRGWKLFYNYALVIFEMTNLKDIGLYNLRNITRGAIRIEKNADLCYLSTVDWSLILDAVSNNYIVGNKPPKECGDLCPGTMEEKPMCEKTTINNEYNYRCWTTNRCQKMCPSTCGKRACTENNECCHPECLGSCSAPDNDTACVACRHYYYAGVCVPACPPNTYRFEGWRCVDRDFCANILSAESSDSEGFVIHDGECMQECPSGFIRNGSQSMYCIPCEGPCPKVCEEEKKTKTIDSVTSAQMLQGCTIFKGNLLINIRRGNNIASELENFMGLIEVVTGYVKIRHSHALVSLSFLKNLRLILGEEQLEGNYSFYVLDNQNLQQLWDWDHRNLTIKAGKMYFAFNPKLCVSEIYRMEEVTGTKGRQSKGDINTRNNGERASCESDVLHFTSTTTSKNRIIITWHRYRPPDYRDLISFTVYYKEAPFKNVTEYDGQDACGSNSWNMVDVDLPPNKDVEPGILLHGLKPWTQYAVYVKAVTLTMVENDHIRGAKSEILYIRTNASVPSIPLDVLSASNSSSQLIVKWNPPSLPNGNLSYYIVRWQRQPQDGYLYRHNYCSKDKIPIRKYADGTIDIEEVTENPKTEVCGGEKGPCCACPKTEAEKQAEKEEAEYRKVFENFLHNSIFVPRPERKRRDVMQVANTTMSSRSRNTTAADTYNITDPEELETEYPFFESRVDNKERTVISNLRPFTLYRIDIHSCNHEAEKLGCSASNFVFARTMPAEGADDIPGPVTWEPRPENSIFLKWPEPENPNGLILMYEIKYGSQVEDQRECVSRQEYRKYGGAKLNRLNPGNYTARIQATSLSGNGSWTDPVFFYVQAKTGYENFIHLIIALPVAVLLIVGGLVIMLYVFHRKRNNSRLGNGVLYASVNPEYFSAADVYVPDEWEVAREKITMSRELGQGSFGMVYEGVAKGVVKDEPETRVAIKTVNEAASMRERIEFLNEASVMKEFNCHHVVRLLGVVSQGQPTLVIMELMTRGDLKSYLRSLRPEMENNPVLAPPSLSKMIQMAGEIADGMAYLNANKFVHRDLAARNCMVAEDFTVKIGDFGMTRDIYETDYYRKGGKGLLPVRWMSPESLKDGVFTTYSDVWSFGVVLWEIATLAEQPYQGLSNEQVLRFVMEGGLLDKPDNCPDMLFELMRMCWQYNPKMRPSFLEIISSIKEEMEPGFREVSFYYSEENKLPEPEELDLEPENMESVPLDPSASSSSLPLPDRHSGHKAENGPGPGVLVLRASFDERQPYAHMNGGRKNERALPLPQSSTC

These are yes or no findings as the source states them, for the method shown. Some entries that bind do so weakly or less than the wild type.

Results on one molecule are retold here after US20260070991A1.

B1: lonigutamab (antibody, V domains shown)
VH: QVQLVQSGAEVKKPGASVKVSCKASGYTFTSYYIHWVRQAPGQGLEWMGWIWPGDGSTKYAQKFQGRVTMTRDTSTSTVYMELSSLRSEDTAVYFCASPMITPNYAMDYWGQGTLVTVSS
VL: DIQMTQSPSSLSASVGDRVTITCRASQDISKYLNWYQQKPGKAPKLLIYYTSRLQSGVPSRFSGRGSGTDYSLTISSLQPEDFATYFCQQGSTLPYTFGGGTKVEIK
As for B1, the binding result was “binds”.
